Laboratory results taken from the supplement of paper PMC10849652.
This is one part of the list.

Amino acid sequences for entries named in this document (tags omitted). A change or cut given only in a name is not applied to a line headed by its entry.
UniProt Q8WXW3: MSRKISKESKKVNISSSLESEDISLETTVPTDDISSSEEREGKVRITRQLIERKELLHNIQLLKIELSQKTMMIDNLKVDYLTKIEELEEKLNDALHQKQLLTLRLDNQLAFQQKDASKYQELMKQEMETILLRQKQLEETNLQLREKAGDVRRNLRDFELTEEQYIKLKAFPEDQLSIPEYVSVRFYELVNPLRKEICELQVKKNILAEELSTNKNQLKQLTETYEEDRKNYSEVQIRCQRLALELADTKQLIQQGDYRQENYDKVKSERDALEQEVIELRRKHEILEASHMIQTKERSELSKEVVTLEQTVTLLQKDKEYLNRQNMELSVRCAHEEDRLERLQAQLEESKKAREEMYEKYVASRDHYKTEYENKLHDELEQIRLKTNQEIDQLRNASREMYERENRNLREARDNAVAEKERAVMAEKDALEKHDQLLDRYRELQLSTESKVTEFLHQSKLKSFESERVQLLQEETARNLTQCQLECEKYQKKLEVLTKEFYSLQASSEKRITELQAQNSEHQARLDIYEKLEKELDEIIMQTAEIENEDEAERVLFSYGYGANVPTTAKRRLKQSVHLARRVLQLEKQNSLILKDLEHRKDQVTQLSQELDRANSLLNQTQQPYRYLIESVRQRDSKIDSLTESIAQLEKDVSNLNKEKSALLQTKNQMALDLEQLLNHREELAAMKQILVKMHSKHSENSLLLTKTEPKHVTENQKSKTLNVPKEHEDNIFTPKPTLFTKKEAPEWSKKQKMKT
UniProt P60673: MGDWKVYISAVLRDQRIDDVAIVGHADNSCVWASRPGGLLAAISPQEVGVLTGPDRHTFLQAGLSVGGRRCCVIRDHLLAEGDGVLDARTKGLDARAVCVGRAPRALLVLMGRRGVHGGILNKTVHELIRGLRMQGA
UniProt Q9Y446: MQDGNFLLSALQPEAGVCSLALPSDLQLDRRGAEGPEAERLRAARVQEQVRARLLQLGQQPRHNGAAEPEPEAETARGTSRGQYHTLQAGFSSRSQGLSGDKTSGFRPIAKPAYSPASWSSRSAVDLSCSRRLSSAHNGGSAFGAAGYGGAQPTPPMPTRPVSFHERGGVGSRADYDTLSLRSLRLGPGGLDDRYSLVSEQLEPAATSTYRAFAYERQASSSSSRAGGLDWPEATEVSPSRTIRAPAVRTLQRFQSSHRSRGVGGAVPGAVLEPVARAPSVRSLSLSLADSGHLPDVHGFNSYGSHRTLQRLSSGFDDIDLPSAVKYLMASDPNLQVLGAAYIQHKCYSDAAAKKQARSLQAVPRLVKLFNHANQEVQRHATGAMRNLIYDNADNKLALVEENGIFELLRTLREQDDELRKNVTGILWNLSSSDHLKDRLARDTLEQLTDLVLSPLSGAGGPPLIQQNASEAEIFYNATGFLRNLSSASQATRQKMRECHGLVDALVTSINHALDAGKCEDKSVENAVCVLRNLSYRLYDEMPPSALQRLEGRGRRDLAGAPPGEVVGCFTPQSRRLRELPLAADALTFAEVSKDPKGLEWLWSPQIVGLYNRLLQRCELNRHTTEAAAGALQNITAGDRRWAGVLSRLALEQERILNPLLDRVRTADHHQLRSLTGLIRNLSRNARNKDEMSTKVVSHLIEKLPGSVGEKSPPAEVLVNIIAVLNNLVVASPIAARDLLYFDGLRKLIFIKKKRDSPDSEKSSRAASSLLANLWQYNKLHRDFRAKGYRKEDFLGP
UniProt O60331: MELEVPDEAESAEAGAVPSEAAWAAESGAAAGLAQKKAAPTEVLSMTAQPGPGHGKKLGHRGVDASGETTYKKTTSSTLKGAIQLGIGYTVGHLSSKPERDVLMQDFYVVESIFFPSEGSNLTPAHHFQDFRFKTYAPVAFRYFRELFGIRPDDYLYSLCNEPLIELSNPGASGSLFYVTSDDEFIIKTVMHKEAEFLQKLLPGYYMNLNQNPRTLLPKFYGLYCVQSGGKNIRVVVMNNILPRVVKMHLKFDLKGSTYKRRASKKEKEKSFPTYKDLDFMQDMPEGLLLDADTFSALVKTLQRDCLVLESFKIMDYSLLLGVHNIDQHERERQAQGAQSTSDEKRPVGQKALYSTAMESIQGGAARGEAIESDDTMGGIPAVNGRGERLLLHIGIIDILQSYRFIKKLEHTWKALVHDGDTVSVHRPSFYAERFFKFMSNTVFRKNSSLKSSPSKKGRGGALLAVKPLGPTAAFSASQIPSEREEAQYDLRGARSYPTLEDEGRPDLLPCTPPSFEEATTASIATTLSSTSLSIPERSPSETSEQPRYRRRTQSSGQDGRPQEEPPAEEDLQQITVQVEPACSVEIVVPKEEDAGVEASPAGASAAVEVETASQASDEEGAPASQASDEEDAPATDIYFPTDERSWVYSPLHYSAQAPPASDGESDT
UniProt Q8IUZ5: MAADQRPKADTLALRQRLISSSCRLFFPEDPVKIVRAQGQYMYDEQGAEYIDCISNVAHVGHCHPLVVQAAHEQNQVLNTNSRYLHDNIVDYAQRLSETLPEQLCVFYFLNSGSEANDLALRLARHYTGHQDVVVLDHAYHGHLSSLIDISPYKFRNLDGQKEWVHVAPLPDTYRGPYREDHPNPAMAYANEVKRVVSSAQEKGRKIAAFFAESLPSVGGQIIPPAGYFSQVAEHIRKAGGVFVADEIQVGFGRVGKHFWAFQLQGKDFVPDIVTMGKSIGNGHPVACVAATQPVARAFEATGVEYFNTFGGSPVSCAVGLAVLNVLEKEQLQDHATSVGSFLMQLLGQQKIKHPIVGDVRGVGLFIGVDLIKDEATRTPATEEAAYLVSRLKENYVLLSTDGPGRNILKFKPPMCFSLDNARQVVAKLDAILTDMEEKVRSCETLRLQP
UniProt P14618, whole entry, looked up: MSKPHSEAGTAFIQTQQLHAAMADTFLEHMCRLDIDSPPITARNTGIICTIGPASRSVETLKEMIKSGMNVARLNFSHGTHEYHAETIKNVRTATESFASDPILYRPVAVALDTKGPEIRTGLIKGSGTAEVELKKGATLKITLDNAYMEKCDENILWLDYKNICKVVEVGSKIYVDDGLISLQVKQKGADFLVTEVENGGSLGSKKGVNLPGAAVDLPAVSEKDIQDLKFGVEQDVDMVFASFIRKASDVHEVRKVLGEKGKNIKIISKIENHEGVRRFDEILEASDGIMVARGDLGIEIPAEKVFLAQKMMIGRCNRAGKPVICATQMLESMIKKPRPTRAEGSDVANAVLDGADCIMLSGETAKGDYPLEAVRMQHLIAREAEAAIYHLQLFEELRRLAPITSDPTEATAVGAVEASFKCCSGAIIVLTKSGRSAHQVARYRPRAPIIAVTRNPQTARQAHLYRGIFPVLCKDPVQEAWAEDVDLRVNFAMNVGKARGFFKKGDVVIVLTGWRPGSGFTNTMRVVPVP
UniProt Q8TBF5: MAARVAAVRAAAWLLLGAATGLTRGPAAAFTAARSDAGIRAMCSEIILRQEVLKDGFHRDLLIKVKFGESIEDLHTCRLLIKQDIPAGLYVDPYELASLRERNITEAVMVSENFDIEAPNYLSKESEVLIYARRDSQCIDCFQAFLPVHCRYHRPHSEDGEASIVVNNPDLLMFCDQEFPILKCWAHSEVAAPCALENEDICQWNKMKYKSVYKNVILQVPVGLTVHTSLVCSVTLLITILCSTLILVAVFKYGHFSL
UniProt Q8N2W9: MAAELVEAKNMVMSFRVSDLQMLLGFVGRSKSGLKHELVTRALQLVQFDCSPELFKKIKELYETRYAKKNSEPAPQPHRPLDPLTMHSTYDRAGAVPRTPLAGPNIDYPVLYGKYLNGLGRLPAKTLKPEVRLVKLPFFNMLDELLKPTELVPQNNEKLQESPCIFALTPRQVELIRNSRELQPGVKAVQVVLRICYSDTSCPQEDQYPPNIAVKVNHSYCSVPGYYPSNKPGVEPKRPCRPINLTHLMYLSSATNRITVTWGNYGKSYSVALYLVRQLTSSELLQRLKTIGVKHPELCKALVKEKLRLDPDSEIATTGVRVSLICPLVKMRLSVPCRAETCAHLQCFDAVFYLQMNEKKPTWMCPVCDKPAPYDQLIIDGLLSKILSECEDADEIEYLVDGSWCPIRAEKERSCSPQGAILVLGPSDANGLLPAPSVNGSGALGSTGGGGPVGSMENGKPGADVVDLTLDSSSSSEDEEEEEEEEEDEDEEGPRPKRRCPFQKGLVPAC
UniProt Q99755: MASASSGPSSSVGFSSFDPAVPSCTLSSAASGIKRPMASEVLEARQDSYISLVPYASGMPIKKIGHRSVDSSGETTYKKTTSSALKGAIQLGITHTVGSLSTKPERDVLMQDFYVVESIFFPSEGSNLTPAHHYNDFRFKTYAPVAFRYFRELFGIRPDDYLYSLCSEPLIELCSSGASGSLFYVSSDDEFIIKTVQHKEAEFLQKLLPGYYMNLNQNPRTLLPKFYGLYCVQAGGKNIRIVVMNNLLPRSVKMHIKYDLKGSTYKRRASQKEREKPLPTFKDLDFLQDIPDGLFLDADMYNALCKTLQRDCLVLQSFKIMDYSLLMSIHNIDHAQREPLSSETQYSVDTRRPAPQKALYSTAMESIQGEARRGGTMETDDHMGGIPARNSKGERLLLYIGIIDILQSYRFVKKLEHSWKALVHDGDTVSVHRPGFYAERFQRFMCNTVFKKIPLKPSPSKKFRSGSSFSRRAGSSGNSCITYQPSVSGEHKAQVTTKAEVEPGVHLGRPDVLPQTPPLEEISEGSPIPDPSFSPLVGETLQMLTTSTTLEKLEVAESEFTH
UniProt O94880: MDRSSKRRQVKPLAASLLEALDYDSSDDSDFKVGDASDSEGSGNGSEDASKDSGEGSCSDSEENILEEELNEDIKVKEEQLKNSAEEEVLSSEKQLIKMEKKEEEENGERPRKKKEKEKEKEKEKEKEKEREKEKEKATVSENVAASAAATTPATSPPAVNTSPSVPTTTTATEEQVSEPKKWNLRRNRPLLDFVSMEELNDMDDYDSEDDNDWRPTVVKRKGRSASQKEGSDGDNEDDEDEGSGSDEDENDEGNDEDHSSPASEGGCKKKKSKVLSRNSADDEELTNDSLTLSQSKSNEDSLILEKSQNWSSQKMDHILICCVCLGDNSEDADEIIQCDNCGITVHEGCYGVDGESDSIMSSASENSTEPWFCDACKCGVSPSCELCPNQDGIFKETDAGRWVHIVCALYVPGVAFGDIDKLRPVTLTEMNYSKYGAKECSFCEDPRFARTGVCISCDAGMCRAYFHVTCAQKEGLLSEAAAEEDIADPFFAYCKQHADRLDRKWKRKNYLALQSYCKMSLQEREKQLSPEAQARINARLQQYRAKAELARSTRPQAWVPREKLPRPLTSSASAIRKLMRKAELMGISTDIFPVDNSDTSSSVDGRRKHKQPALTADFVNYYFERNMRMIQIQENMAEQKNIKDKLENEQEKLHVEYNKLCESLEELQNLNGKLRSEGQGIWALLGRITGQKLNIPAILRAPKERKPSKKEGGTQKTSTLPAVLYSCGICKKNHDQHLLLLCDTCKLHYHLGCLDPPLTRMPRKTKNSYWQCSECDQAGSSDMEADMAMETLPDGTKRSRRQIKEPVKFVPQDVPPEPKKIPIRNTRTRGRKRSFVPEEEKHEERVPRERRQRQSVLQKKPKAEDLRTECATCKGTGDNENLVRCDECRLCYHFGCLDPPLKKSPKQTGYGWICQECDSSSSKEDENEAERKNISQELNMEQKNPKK
UniProt Q92521: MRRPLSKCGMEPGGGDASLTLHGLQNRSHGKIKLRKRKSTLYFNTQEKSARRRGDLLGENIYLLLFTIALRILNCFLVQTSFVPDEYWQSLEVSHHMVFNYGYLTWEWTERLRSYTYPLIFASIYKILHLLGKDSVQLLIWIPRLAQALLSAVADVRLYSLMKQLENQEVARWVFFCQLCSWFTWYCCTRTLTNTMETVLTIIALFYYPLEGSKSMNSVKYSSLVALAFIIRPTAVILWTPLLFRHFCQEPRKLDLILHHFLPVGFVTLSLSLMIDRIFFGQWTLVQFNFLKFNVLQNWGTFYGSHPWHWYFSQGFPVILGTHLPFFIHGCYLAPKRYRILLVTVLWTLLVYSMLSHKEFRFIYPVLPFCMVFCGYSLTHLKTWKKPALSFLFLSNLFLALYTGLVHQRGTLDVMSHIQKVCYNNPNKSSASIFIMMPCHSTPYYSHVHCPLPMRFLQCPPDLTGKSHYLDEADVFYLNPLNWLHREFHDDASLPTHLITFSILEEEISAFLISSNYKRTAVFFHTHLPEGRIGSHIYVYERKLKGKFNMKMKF
UniProt P07205: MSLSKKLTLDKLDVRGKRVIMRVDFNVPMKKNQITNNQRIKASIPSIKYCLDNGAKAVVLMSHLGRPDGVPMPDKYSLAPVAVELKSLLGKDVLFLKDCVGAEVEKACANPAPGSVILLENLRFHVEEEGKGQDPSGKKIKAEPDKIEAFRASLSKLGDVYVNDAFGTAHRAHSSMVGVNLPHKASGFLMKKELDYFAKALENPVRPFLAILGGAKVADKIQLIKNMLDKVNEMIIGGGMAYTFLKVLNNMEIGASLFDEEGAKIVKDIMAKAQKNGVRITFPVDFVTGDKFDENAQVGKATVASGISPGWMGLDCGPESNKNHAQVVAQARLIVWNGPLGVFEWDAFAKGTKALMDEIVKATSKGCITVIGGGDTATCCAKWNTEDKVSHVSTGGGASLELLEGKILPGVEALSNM

compound: C1CCN(C1)C(=O)NC2=CC=CC(=C2)NC3=NC=C(C(=N3)NCCC4=CN=CN4)Br; assay: log2 fold change, soluble protein after heating vs DMSO (PISA); higher = thermal stabilisation; K562 cells, 10 uM, 30 min; active = over 0.2 and 3.5 SD of the protein, either way, in both replicates (recomputed)
Method in brief: (§1)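 K562 cells at 2×10^6 cells/mL were treated for 30 min with 10 μM compound, and aliquots were heated for 3 min over 48°C-58°C before pooling. Extraction used PBS with 0.5% NP-40 at 4°C, and soluble protein was the supernatant after 21,000xg for 90 min, measured by TMTpro 16plex LC-MS/MS with channel sums equalised. Thermal stability values, relative to control samples and from duplicates, are log2 fold changes.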

log2 fold change, inactive:
PIBF1 (UniProt Q8WXW3) 0.079
PFN3 (UniProt P60673) 0.072
PKP3 isoform 2 (UniProt Q9Y446) -0.216
PIP5K1C isoform 3 (UniProt O60331) -0.143
PLA2G4B isoform 6 (UniProt P0C869) -0.117
PHYKPL (UniProt Q8IUZ5) 0.022
PIGO (UniProt Q8TEQ8) -0.066
PHF19 isoform 2 (UniProt Q5T6S3) -0.162
PKM isoform 2 (UniProt P14618) -0.047
PIGX isoform 2 (UniProt Q8TBF5) 0.075
PIAS4 (UniProt Q8N2W9) 0.129
PIP5K1A (UniProt Q99755) -0.141
PIGN (UniProt O95427) 0.06
PHF14 (UniProt O94880) 0.019
PIGB (UniProt Q92521) -0.032
PHLPP1 (UniProt O60346) 0.021
PGK2 (UniProt P07205) 0.034

compound: C1CN(CCC1(CC2=CC=C(C=C2)Cl)N)C3=NC=NC4=C3C=CN4; assay: as above
Method in brief: as §1

log2 fold change, inactive:
PIBF1 (UniProt Q8WXW3) -0.134
PFN3 (UniProt P60673) 0.352
PKP3 isoform 2 (UniProt Q9Y446) -0.164
PIP5K1C isoform 3 (UniProt O60331) 0.049
PLA2G4B isoform 6 (UniProt P0C869) 0.255
PHYKPL (UniProt Q8IUZ5) 0.2
PIGO (UniProt Q8TEQ8) 0.105
PHF19 isoform 2 (UniProt Q5T6S3) 0.059
PKM isoform 2 (UniProt P14618) 0.003
PIGX isoform 2 (UniProt Q8TBF5) -0.049
PIAS4 (UniProt Q8N2W9) -0.045
PIP5K1A (UniProt Q99755) -0.174
PIGN (UniProt O95427) -0.008
PHF14 (UniProt O94880) 0.06
PIGB (UniProt Q92521) 0.012
PHLPP1 (UniProt O60346) -0.133
PGK2 (UniProt P07205) 0.029
